Results reported in PMC4525147.
Results are given in words; binding and its absence hold for the method and conditions named. For some of these results: A result given as binding can be weak or reduced; the word gives no strength.

Assays:
Test in all cases: far-Western, overlay or dot blot; blots of lysates of E. coli expressing His-tagged gp41 constructs probed with biotinylated dicalcin, dcp11 or dcp15; only the binder purified
[1] = biological target: His-tagged ZP-C domain of gp41 (Xenopus laevis)
[2] = biological target: His-tagged full-length gp41 (Xenopus laevis)
[3] = biological target: His-Δ63N, truncated ZP-C domain of gp41 (Xenopus laevis)
[4] = biological target: His-Δ76C, truncated ZP-C domain of gp41 (Xenopus laevis)
[5] = biological target: His-Δ89C, truncated ZP-C domain of gp41 (Xenopus laevis)

Binder	binding [1]	binding [2]	binding [3]	binding [4]	binding [5]
SFSCNQKNK (biotin) [dcp11, dicalcin-derived peptide]	binds	binds	no binding	binds	no binding
AALCKL (biotin) [dcp15, dicalcin-derived peptide]	binds	binds	no binding	binds	no binding
